Assay results taken from article PMC8429736, “Pharmacological characterization of mutant huntingtin aggregate-directed PET imaging tracer candidates” (Scientific Reports, 2021).
No constants are given. Whether binding was seen depends on the method and setting. Some results given as binding are weak or reduced against the parent protein; the word gives no strength. Where a sequence is shown, tags or fusion partners need not be part of it. One block for each binder: values may come before it.

What was measured:
[1] = molecular target: Q46 (poly-glutamine peptide released from GST-Q46 by thrombin); assay: filter-trap assay + thioflavin S fluorescence + electron microscopy; self-assembly into fibrils after tag cleavage: proteins at 30 µM with 150 µg/mL thrombin in 50 mM Tris pH 8.0, 150 mM NaCl, 2 mM CaCl2, 16 h at 37 °C; crude aggregates and pellet after centrifugation analysed; both purified
[2] = molecular target: HTT(1-89)Q46-His(6x) (released from MBP-HTT(1-89)Q46-His(6x) by thrombin); assay: as above

binding [1]: binds
B1: Q46 (poly-glutamine peptide released from GST-Q46 by thrombin) (peptide)
chain: GSQQQQQQQQQQQQQQQQQQQQQQQQQQQQQQQQQQQQQQQQQQQQQQQQ

binding [2]: binds
B2: HTT(1-89)Q46-His(6x) (released from MBP-HTT(1-89)Q46-His(6x) by thrombin) (domain or fragment)
chain: GGMATLEKLMKAFESLKSFQQQQQQQQQQQQQQQQQQQQQQQQQQQQQQQQQQQQQQQQQQQQQQQPPPPPPPPPPPQLPQPPPQAQPLLPQPQPPPPPPPPPPGPAVAEEPLHR
